# “And” between values parts separate entries of the source, which are not always exact repeats. Equal entries are not always repeated. Structures can show the parent of a compound that is named as a salt. ± gives the standard deviation of the averaged measurements. The list shows a part of the results. Part of the spread comes from offsets between plates or batches.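 Culture-activated primary human stellate myofibroblasts, where regained lipid droplets signal inactivation. Value: share of Hoechst-counted cells above a per-plate Bodipy cutoff, in duplicate wells, with DMSO negative and nortriptyline positive controls on each plate. Hits: a control-normalized score above the plate's top-tenth-percentile nortriptyline wells, or one of a plate's three best wells. Final well concentrations are not given.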
# Test system: primary human hepatic stellate cells (donor 1)
# Test: percent Bodipy-positive cells; higher = more lipid droplet accumulation
# Details: 48 h
# [1] = library stock concentration: 3.33 mM
# [2] = library stock concentration: 10 mM
# [3] = library stock concentration: 80 uM
# [4] = library stock concentration: 400 uM
# [5] = library stock concentration: 2 mM
# [6] = library stock concentration: 1 mM
# [7] = library stock concentration: 7.5 mM
compound,measurement,setting,value
CNCC[C@H](Oc1cccc2ccccc12)c1cccs1.Cl [Duloxetine hydrochloride],percent Bodipy-positive cells,library stock concentration: 6 mM,96.5 ± 2%
CC1(C)S[C@@H]2[C@H](NC(=O)[C@H](N)c3ccccc3)C(=O)N2[C@H]1C(=O)OC1OC(=O)c2ccccc21 (some centres not stated) [Talampicillin hydrochloride],percent Bodipy-positive cells,,5 ± 0.95%
O=C(O)c1ccc(-n2nc(-c3ccccc3O)nc2-c2ccccc2O)cc1 [Deferasirox],percent Bodipy-positive cells,[1],10.5 ± 0.75%
same,percent Bodipy-positive cells,[2],21 ± 6.5%
CC(=O)OCOC(c1cc([N+](=O)[O-])ccc1Oc1ccc(Br)cc1)P(=O)(OCOC(C)=O)OCOC(C)=O (configuration not stated),percent Bodipy-positive cells,library stock concentration: 8.1 mM,88.714 ± 0.025%
NC(=O)OCC(O)COc1ccc(Cl)cc1 (configuration not stated) [Chlorphensin carbamate],percent Bodipy-positive cells,,31.3 ± 17%
COc1cc(/C=C(\C#N)C(=O)c2ccc(O)c(O)c2)cc(I)c1O [I-OMe-Tyrphostin AG 538],percent Bodipy-positive cells,[2],22.2 ± 1.7%
O=C(O)c1cc2cccc([N+](=O)[O-])c2[nH]1,percent Bodipy-positive cells,[1],26.5 ± 3.8%
same,percent Bodipy-positive cells,[2],31.1 ± 3.6%
COc1ccc(CCc2nc3cc(-c4c(C)noc4C)ccc3n2C[C@H](C)N2CCOCC2)cc1Cl,percent Bodipy-positive cells,[1],45.5 ± 10%
same,percent Bodipy-positive cells,[2],64 ± 4.9%
Cc1cnc(-c2cnc(NCCNc3ccc(C#N)cn3)nc2-c2ccc(Cl)cc2Cl)[nH]1,percent Bodipy-positive cells,[3],22.2 ± 5.6%
same,percent Bodipy-positive cells,[4],9.89 ± 2.9%
same,percent Bodipy-positive cells,[5],29.1 ± 1.1%
same,percent Bodipy-positive cells,[1],24.8 ± 1.8%
same,percent Bodipy-positive cells,[2],81.9 ± 2.1%
Cc1c(NC(C)C)c(=O)n(-c2ccccc2)n1C [Ramifenazone],percent Bodipy-positive cells,[2],42.3 ± 1.1%
Cc1c(NC(C)C)c(=O)n(-c2ccccc2)n1C [Isopyrin hydrochloride],percent Bodipy-positive cells,,7.64 ± 4.7%
O=c1cc(-c2ccc(O)cc2)oc2cc(O[C@@H]3O[C@H](CO)[C@@H](O)[C@H](O)[C@H]3O)cc(O)c12 [Cosmosiin],percent Bodipy-positive cells,[2],50.1 ± 4.5%
COc1cc(N)c(Cl)cc1C(=O)CCC1CCN(CCNS(C)(=O)=O)CC1,percent Bodipy-positive cells,[2],15.9 ± 3.2%
CNCc1ccc(-c2[nH]c3cc(F)cc4c3c2CCNC4=O)cc1 [Rucaparib],percent Bodipy-positive cells,[3],34.1 ± 1.1%
same,percent Bodipy-positive cells,[4],46.3 ± 8%
same,percent Bodipy-positive cells,[5],72.9 ± 4.8%
CNCc1ccc(-c2[nH]c3cc(F)cc4c3c2CCNC4=O)cc1,percent Bodipy-positive cells,[1],22.8 ± 3%
NCCc1cc[nH]n1 [Betazole hydrochloride],percent Bodipy-positive cells,,16.9 ± 0.92%
CCCNC(C)C(=O)Nc1c(C)csc1C(=O)OC (configuration not stated) [Articaine hydrochloride],percent Bodipy-positive cells,,8.37 ± 2%
CCCNC(C)C(=O)Nc1c(C)csc1C(=O)OC (configuration not stated) [Articaine HCl],percent Bodipy-positive cells,[1],8.07 ± 3.4%
same,percent Bodipy-positive cells,[2],26.9 ± 4.8%
CCNC(=O)c1noc(-c2cc(C(C)C)c(O)cc2O)c1-c1ccc(CN2CCOCC2)cc1,percent Bodipy-positive cells,[3],72.4 ± 9.1%
same,percent Bodipy-positive cells,[4],73.8 ± 3.1%
same,percent Bodipy-positive cells,[5],74.9 ± 3.9%
same,percent Bodipy-positive cells,[2],65.7% and 73.4%
"CCCCCCCCCC(=O)OCC(CO)OC(=O)CCCCCCCCC (configuration not stated) [1,2-Didecanoyl-glycerol (10:0)]",percent Bodipy-positive cells,[6],7.93 ± 9.2%
"CCCCCCCCCC(=O)OCC(CO)OC(=O)CCCCCCCCC (configuration not stated) [1,2-Didecanoyl-sn-glycerol]",percent Bodipy-positive cells,[6],8.95 ± 1.3%
"CC(=O)C1=C(O)C=C2Oc3c(C(C)=O)c(O)c(C)c(O)c3C2(C)C1=O (single isomer, unassigned; (+)) [(+)-Usniacin]",percent Bodipy-positive cells,[1],7.67 ± 0.59%
same,percent Bodipy-positive cells,[2],14.4 ± 2.2%
C[C@H](NC[C@H](O)CP(=O)(O)Cc1ccccc1)c1ccc(Cl)c(Cl)c1,percent Bodipy-positive cells,[2],6.77 ± 1.4%
CC(=O)c1cc([N+](=O)[O-])c(Sc2ccc(F)cc2F)s1,percent Bodipy-positive cells,[1],37.4 ± 14%
same,percent Bodipy-positive cells,[2],42.8 ± 14%
"CCCCC/C=C/C=C1/C=CC(=O)[C@@H]1CCCCCCC(=O)O [15-deoxy-.DELTA.12,14-Prostaglandin A1]",percent Bodipy-positive cells,[6],12.25 ± 0.05%
O=C1NC(=O)c2cc(Nc3ccc(F)cc3)c(Nc3ccc(F)cc3)cc21,percent Bodipy-positive cells,[2],9.97 ± 2.3%
Cc1cn([C@H]2C[C@H](N=[N+]=[N-])[C@@H](CO)O2)c(=O)[nH]c1=O [3'-azido-3'-deoxythymidine],percent Bodipy-positive cells,[7],9.19 ± 2.2%
Cc1cn([C@H]2C[C@H](N=[N+]=[N-])[C@@H](CO)O2)c(=O)[nH]c1=O [Zidovudine [azt]],percent Bodipy-positive cells,[7],18.9 ± 6.3%
same,percent Bodipy-positive cells,[2],14 ± 6.1%
Cc1cn([C@H]2C[C@H](N=[N+]=[N-])[C@@H](CO)O2)c(=O)[nH]c1=O [Zidovudine],percent Bodipy-positive cells,[1],4.66 ± 0.87%
same,percent Bodipy-positive cells,[2],12.2 ± 6.4%
Cc1cn([C@H]2C[C@H](N=[N+]=[N-])[C@@H](CO)O2)c(=O)[nH]c1=O,percent Bodipy-positive cells,[2],24.4 ± 7.8%
"Cc1cn([C@H]2C[C@H](N=[N+]=[N-])[C@@H](CO)O2)c(=O)[nH]c1=O [Zidovudine, AZT]",percent Bodipy-positive cells,,17.5 ± 1.6%
Cc1cn([C@H]2C[C@H](N=[N+]=[N-])[C@@H](CO)O2)c(=O)[nH]c1=O [3'-Azido-3'-deoxythymidine],percent Bodipy-positive cells,[2],45.3 ± 0.52%
COc1ccc([C@@H]2Sc3ccccc3N(CCN(C)C)C(=O)[C@@H]2OC(C)=O)cc1 [Diltiazem hydrochloride],percent Bodipy-positive cells,,42.4 ± 4.9%
same,percent Bodipy-positive cells,library stock concentration: 4.4 mM,43 ± 15%
COc1ccc([C@@H]2Sc3ccccc3N(CCN(C)C)C(=O)[C@@H]2OC(C)=O)cc1 [Diltiazem],percent Bodipy-positive cells,library stock concentration: 4.8 mM,24.5 ± 1.2%
COc1ccc([C@@H]2Sc3ccccc3N(CCN(C)C)C(=O)[C@@H]2OC(C)=O)cc1,percent Bodipy-positive cells,[2],74.8 ± 2%
COc1ccc([C@@H]2Sc3ccccc3N(CCN(C)C)C(=O)[C@@H]2OC(C)=O)cc1 [Diltiazem HCl],percent Bodipy-positive cells,[1],13.35 ± 0.049%
same,percent Bodipy-positive cells,[2],55.1 ± 8.3%
CCCCC[C@H](O)/C=C/[C@@H]1[C@@H](CC(=O)CCCCC(=O)O)[C@@H](O)C[C@H]1O [6-Keto-prostaglandin F1a],percent Bodipy-positive cells,[6],16.9 ± 18%
CCCCC[C@H](O)/C=C/[C@@H]1[C@@H](CC(=O)CCCCC(=O)O)[C@@H](O)C[C@H]1O [6-keto Prostaglandin F1.alpha.],percent Bodipy-positive cells,[6],13.5 ± 3.5%

# Retrieved one by one from above:
compound,measurement,setting,value
O=C(O)c1cc2cccc([N+](=O)[O-])c2[nH]1,percent Bodipy-positive cells,[2],31.1 ± 3.6%
"CCCCCCCCCC(=O)OCC(CO)OC(=O)CCCCCCCCC (configuration not stated) [1,2-Didecanoyl-sn-glycerol]",percent Bodipy-positive cells,[6],8.95 ± 1.3%
CC1(C)S[C@@H]2[C@H](NC(=O)[C@H](N)c3ccccc3)C(=O)N2[C@H]1C(=O)OC1OC(=O)c2ccccc21 (some centres not stated) [Talampicillin hydrochloride],percent Bodipy-positive cells,,5 ± 0.95%
O=c1cc(-c2ccc(O)cc2)oc2cc(O[C@@H]3O[C@H](CO)[C@@H](O)[C@H](O)[C@H]3O)cc(O)c12 [Cosmosiin],percent Bodipy-positive cells,[2],50.1 ± 4.5%

# — the supplement of paper PMC9135407
